Literature values as cited in patent publication US5721229A, “Soluble forms of cephalosporins and treatment of animals” (Veterinary Pharmacy Corporation, priority 1995, dated 1998).

Legend:
[1] = readily dissolved form; cited from earlier work
[2] = cited from earlier work
[3] = water-soluble form; cited from earlier work

CC1=C(C(=O)O)N2C(=O)[C@@H](NC(=O)[C@H](N)c3ccccc3)[C@H]2SC1 [cephalexin monohydrate]
Neutrally charged fraction of dissolved form [1]: 50%
Positively charged fraction of dissolved form [1]: 50%

CC1=C(C(=O)O)N2C(=O)[C@@H](NC(=O)[C@H](N)c3ccccc3)[C@H]2SC1 [cephalexin, α-aminobenzyl-3-desacetoxycephalosporin]
Absorption by the body when ingested [2]: 90%

CC1=C(C(=O)O)N2C(=O)[C@@H](NC(=O)[C@H](N)c3ccccc3)[C@H]2SC1 [sodium cephalexin]
Stability time [3]: less than 6 hours
